These results are taken from paper PMC3161108.

No constants are given. Whether binding was seen depends on the method and setting. Binding seen in cells or lysates may run through a third protein. Some binding calls cover weakened binding; strength is not graded here. Sequences can lack the tags named with a protein.

The test has as its target T1, HA-tagged zebrafish RNR M1 subunit (R1) (zebrafish) (UniProt P79732).
T1 sequence: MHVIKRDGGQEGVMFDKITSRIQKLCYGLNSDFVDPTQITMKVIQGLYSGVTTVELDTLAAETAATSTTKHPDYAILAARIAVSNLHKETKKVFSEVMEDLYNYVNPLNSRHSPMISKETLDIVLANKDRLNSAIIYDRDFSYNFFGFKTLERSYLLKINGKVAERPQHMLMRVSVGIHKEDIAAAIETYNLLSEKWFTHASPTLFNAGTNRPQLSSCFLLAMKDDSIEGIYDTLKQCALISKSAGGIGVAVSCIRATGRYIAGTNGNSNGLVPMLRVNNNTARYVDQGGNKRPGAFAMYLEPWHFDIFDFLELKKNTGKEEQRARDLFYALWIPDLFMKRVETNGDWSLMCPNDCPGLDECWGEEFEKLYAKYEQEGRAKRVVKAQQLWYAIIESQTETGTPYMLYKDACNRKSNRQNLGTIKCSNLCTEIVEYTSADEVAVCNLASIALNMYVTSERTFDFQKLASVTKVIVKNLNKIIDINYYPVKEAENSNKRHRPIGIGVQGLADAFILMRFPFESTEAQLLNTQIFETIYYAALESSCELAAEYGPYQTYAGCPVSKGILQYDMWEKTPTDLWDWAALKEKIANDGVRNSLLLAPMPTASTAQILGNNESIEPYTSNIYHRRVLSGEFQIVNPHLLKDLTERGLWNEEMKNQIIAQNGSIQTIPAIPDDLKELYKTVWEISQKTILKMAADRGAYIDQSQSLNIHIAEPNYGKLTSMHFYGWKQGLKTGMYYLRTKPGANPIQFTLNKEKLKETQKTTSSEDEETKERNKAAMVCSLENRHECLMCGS
The test can be described thus: co-IP; 293T cells co-transfected with HA-R1 and one of the Flag-R2 isoforms; at 45 h protein extracts immunoprecipitated with anti-HA or anti-Flag antibodies; Western blot with the other antibody. For orientation: In western blotting, separated proteins are transferred to a membrane and probed.

B1: Flag-tagged zebrafish R2, normal form (protein, UniProt P79733 1-386)
chain: MSSTRSPLKTKNENTISTKMNNMSFVDKENTPPSLSSTRILASKTARKIFDESEGQSKAKKGAVEEEPLLKENPHRFVIFPIQYHDIWQMYKKAEASFWTAEEVDLSKDLQHWDSLKDEERYFISHVLAFFAASDGIVNENLVERFTQEVQVTEARCFYGFQIAMENIHSEMYSLLIDTYIKDSKEREFLFNAIETMPCVKKKADWALNWIGDKNARYGERVVAFAAVEGIFFSGSFASIFWLKKRGLMPGLTFSNELISRDEGLHCDFACLMFKHLINKPSEETVKKIIMNAVEIEQEFLTDALPVKLIGMNCDLMKQYIEFVADRLLLELGFDKVYRVENPFDFMENISLEGKTNFFEKRVGEYQRMGVMSGTTDNTFTLDADF
On to B1, for which the binding result is listed as “binds”.
